According to the supplement of paper PMC10849652:
The list shows a part of the results.

The chains behind the UniProt entries cited, without tags or fusion partners. Where a name states a change or a piece, a line headed by the entry shows the natural chain unless it says otherwise.
UniProt P12814, whole entry, looked up: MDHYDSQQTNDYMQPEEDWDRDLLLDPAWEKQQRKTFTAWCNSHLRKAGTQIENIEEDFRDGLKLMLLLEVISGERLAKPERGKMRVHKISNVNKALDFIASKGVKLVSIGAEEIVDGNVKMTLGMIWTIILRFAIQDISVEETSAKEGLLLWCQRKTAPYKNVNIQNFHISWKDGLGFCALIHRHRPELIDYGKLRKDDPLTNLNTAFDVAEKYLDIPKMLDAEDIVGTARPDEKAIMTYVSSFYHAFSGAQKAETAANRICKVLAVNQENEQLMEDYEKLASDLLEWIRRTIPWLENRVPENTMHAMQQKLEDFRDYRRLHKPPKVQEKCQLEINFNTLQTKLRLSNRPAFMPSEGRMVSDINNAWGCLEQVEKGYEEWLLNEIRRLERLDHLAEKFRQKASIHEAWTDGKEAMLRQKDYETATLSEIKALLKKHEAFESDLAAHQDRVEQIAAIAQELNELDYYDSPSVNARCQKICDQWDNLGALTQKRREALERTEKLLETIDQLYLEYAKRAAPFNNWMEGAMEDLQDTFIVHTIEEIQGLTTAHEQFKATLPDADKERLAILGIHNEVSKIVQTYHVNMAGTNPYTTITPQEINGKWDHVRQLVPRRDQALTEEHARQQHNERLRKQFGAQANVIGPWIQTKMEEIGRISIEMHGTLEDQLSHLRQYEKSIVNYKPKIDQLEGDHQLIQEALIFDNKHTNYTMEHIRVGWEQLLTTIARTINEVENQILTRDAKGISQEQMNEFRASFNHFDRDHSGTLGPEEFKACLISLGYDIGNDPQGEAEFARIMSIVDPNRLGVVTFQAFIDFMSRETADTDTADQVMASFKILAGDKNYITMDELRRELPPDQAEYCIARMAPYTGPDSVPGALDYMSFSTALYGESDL
UniProt O96019, whole entry, looked up: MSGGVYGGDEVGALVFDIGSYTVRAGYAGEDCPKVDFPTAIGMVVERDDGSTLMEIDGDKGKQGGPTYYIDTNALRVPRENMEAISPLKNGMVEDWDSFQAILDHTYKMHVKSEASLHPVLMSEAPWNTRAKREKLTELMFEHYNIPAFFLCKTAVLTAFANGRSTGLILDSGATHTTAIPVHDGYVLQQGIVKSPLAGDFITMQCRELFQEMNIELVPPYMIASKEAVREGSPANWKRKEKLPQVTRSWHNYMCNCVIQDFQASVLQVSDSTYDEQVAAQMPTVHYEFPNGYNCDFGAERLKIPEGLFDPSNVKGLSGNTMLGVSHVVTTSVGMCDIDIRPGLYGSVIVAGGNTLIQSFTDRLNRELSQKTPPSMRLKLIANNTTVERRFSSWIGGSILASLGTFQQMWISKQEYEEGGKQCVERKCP
UniProt Q96M93: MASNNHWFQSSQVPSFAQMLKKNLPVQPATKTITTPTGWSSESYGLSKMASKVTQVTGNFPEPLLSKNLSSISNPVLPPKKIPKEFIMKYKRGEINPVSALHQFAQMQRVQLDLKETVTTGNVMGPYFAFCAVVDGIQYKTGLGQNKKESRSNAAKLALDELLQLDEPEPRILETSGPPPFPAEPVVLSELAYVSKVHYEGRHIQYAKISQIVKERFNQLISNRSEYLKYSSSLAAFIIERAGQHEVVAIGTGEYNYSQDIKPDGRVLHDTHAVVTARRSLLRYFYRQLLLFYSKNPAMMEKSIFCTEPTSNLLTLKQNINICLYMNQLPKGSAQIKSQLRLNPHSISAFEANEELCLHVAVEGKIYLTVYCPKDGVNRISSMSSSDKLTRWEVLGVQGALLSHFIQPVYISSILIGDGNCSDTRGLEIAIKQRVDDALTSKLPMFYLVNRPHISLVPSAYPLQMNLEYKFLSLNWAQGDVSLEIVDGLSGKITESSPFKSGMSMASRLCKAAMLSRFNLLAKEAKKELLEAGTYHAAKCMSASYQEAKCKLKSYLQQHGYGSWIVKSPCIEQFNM
UniProt O95342, whole entry, looked up: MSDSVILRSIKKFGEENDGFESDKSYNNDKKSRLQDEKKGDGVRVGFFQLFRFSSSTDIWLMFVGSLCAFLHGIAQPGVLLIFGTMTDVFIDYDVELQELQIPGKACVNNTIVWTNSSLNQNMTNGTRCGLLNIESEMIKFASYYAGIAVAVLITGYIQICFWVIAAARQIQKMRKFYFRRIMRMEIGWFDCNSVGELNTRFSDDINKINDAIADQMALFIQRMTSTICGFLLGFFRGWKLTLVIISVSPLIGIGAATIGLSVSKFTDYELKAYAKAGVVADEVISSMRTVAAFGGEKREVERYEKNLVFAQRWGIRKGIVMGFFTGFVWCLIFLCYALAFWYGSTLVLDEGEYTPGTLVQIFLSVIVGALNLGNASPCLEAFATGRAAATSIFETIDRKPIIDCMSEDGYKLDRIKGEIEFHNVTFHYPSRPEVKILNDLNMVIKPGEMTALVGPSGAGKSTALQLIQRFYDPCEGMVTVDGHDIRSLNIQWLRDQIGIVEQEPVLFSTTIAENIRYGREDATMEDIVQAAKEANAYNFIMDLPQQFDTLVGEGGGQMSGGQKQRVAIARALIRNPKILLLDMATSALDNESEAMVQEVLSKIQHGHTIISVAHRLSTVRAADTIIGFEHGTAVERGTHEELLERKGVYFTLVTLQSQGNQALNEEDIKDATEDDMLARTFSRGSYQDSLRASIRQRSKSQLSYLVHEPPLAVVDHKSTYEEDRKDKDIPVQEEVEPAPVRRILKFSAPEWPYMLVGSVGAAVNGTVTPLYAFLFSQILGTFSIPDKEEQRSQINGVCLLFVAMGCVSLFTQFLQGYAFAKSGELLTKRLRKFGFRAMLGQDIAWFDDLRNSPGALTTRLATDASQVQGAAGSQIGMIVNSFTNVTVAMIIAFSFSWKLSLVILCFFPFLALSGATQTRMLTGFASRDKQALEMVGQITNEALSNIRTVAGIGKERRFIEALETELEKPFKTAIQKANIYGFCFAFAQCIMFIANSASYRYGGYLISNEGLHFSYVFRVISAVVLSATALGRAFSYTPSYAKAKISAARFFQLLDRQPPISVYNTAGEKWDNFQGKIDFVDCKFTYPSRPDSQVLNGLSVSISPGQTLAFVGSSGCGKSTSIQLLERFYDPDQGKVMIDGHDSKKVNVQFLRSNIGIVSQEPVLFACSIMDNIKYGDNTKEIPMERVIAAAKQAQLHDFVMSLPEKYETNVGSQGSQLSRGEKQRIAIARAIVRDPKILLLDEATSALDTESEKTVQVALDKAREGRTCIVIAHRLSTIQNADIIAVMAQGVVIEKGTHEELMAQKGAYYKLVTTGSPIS
UniProt Q8TDG2: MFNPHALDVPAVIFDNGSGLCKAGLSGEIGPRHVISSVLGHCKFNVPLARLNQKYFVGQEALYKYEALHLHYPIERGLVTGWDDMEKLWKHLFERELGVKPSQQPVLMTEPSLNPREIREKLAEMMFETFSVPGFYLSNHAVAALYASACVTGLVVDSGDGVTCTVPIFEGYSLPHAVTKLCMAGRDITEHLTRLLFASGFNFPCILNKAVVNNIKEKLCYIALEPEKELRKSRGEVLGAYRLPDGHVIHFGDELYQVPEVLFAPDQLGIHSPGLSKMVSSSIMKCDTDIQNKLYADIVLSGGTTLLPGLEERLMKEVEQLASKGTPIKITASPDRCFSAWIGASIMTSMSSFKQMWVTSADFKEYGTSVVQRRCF
UniProt O94911: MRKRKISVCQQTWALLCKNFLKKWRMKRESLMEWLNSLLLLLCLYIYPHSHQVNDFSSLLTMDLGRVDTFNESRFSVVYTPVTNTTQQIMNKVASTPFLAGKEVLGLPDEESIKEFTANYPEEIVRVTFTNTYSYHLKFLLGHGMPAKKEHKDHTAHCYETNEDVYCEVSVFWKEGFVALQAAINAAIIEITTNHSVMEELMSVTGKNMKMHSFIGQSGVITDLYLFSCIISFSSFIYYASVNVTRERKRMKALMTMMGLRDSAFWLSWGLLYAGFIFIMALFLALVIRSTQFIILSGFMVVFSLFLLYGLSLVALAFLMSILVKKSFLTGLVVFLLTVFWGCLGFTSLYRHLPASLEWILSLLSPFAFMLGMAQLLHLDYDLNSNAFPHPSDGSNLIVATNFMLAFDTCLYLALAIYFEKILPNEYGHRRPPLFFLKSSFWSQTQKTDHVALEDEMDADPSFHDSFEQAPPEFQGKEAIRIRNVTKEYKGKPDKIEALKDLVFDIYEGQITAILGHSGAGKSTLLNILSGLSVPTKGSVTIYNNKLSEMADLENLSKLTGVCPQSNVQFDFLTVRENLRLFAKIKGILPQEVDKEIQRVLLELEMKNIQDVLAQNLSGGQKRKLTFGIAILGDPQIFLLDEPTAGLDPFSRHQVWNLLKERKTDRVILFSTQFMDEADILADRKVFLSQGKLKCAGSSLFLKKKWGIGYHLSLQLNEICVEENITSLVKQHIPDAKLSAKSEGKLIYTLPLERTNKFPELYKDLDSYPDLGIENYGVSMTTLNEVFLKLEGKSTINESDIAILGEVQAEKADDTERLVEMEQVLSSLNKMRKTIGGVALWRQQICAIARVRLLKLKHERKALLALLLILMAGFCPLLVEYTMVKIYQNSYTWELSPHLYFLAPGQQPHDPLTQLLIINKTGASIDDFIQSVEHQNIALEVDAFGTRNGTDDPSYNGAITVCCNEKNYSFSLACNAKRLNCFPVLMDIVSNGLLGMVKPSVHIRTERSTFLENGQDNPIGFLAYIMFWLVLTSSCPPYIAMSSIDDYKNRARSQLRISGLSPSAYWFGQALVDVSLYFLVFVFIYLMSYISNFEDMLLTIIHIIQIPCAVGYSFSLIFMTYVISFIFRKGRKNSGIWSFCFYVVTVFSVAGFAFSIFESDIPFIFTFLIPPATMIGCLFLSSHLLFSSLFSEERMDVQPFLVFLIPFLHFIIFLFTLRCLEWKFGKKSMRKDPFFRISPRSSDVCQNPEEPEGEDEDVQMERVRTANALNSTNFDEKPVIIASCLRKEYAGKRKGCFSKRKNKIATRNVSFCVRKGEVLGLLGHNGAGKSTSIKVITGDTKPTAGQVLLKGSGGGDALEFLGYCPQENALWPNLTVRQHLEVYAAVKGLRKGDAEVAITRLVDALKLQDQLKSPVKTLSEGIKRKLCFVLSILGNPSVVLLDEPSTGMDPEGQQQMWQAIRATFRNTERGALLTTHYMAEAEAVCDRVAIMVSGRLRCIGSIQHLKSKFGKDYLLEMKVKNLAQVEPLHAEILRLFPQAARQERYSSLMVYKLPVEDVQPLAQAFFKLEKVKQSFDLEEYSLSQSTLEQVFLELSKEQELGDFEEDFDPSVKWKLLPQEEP
UniProt Q9P1F3: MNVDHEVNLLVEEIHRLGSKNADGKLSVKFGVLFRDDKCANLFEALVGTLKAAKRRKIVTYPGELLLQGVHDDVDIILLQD
UniProt P21439, whole entry, looked up: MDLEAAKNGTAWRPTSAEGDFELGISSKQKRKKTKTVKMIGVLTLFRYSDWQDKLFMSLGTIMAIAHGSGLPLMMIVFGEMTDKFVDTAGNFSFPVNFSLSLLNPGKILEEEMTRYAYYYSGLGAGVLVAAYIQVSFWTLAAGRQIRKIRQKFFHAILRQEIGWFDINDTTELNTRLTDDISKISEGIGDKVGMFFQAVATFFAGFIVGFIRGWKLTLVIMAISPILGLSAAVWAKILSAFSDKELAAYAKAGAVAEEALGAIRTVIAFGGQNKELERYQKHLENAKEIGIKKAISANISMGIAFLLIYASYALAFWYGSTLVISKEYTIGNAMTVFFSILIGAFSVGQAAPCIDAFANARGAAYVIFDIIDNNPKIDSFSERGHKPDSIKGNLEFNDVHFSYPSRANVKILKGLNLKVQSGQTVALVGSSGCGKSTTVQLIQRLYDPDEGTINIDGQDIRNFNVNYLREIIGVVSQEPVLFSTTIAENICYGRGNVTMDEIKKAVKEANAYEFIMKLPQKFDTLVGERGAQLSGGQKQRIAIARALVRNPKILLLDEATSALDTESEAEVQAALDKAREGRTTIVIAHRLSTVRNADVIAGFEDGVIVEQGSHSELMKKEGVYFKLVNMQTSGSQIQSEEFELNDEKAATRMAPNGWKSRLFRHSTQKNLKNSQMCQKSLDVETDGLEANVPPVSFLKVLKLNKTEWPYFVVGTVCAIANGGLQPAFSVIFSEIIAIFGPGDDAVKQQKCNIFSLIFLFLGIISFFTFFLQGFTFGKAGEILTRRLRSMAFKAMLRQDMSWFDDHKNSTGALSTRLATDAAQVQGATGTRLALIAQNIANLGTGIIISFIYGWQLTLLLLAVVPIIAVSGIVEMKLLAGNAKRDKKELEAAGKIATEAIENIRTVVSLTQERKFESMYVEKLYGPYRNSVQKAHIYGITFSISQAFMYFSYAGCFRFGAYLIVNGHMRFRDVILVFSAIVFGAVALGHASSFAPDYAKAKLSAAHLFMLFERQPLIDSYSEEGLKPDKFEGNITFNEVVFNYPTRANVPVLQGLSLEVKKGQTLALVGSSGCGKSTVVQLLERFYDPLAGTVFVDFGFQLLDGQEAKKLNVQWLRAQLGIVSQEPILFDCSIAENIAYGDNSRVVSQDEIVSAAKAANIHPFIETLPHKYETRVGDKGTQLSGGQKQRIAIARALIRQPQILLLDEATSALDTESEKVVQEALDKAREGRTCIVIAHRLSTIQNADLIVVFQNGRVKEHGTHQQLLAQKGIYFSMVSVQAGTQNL

How the values were obtained:
Assay in all cases: log2 fold change, soluble protein after heating vs DMSO (PISA); higher = thermal stabilisation; K562 cells, 10 uM, 30 min; active = over 0.2 and 3.5 SD of the protein, either way, in both replicates (recomputed)
[1] = compound: CN1CCN(CCOc2cc(OC3CCOCC3)c3c(Nc4c(Cl)ccc5c4OCO5)ncnc3c2)CC1 [saracatinib]
In short: (§1)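 Soluble protein was quantified by TMTpro 16plex LC-MS/MS after channel sums were equalised. It was obtained as the supernatant after 21,000xg for 90 min from pooled aliquots of K562 cells (2×10^6 cells/mL, 10 μM compound, 30 min) heated for 3 min across 48°C-58°C and extracted in PBS with 0.5% NP-40 at 4°C. Thermal stability values are relative to control samples and come from duplicates. They are given as log2 fold changes.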

[2] = compound: CN1CCN(c2nc(C3=C(c4c[nH]c5ccccc45)C(=O)NC3=O)c3ccccc3n2)CC1 [sotrastaurin]
In short: as §1

[3] = compound: CN1CC[C@H](c2c(O)cc(O)c3c(=O)cc(-c4ccccc4Cl)oc23)[C@H](O)C1 [alvocidib]
In short: as §1

[4] = compound: CN1CCc2c(c3ccccc3n2Cc2ccc(C(=O)NO)cc2)C1 [Tubastatin A]
In short: as §1

[5] = compound: CNC(=O)C1=CC=CC=C1NC2=NC(=NC=C2Cl)NC3=C(C=C(C=C3)N4CCOCC4)OC
In short: as §1

[6] = compound: CNC(=O)c1ccc(Nc2ncc(C(F)(F)F)c(NCc3nccnc3N(C)S(C)(=O)=O)n2)cc1 [defactinib]
In short: as §1

[7] = compound: CNCc1ccc(-c2[nH]c3cc(F)cc4c3c2CCNC4=O)cc1 [rucaparib]
In short: as §1

[8] = compound: CNc1nc(-c2ccc3c(N)n[nH]c3c2)cc(N2C[C@@H](C(=O)NC3CCCCC3)CC[C@H]2C)n1
In short: as §1

[9] = compound: COC(=O)N[C@@H](C)CNc1nccc(-c2cn(C(C)C)nc2-c2cc(Cl)cc(NS(C)(=O)=O)c2F)n1 [encorafenib]
In short: as §1

[10] = compound: COC(=O)[C@H](CCSC)NC(=O)C1=C(C=C(C=C1)NC[C@H](CS)N)C2=CC=CC=C2
In short: as §1

Measured: log2 fold change

ACTN1 (UniProt P12814)
inactive: [1] 0.013 | [2] 0.04 | [3] -0.018 | [4] 0.015 | [5] -0.014 | [6] -0.014 | [7] -0.087 | [8] -0.037 | [9] -0.014 | [10] 0.002

ACTR2 (UniProt P61160)
inactive: [1] -0.018 | [2] 0.002 | [3] -0.017 | [4] -0.017 | [5] 0.037 | [6] -0.025 | [7] -0.012 | [8] -0.061 | [9] -0.008 | [10] -0.007

ACTG1 (UniProt K7EM38)
inactive: [1] -0.161 | [2] 0.045 | [3] -0.157 | [4] 0.098 | [6] -0.25 | [7] -0.152 | [8] 0.071 | [9] -0.122 | [10] -0.161

ACAA1 (UniProt P09110)
inactive: [1] 0.051 | [2] -0.025 | [3] -0.027 | [4] 0.011 | [5] 0.004 | [6] -0.006 | [7] -0.013 | [8] -0.034 | [9] -0.028 | [10] -0.021

ABCC1 (UniProt P33527)
inactive: [1] 0.074 | [2] 0.012 | [3] -0.038 | [4] 0.006 | [5] -0.031 | [6] -0.036 | [7] -0.013 | [8] 0.061 | [9] -0.009 | [10] 0.027

ABCD3 (UniProt P28288)
inactive: [1] 0.006 | [2] 0.006 | [3] 0.003 | [4] -0.006 | [5] -0.007 | [6] -0.009 | [7] 0.002 | [8] 0.034 | [9] 0.037 | [10] -0.036

ACTB, A0A2R8YEA7
inactive: [1] -0.117 | [2] -0.049 | [3] 0.302 | [4] 0.122 | [5] -0.008 | [6] -0.071 | [7] -0.116 | [8] -0.217 | [9] -0.027 | [10] -0.066

ABI1 (UniProt Q8IZP0)
inactive: [1] -0.044 | [2] 0.027 | [3] -0.16 | [4] -0.033 | [5] 0.014 | [6] -0.005 | [7] 0.037 | [8] -0.039 | [9] -0.022 | [10] -0.03

ACTA1 (UniProt P68133)
inactive: [1] 0.048 | [2] 0.031 | [3] 0.011 | [4] -0.036 | [5] -0.027 | [6] 0 | [7] -0.02 | [8] -0.065 | [9] -0.02 | [10] 0.035

ACTR6 (UniProt Q9GZN1)
inactive: [1] 0.054 | [2] -0.086 | [3] -0.005 | [4] -0.067 | [5] 0.131 | [6] -0.09 | [7] 0.009 | [8] -0.046 | [9] -0.005 | [10] -0.031

ADAMTSL4 isoform 3 (UniProt Q6UY14)
inactive: [1] -0.066 | [2] -0.05 | [3] 0.097 | [4] 0.138 | [5] -0.049 | [6] -0.056 | [7] 0.06 | [8] 0.018 | [9] 0.055 | [10] 0.079

ACO1 (UniProt P21399)
inactive: [1] 0.036 | [2] 0.037 | [3] -0.057 | [4] -0.054 | [5] 0.008 | [6] -0.008 | [7] -0.048 | [8] -0.017 | [9] 0.019 | [10] -0.003

ACBD5 (UniProt Q5T8D3)
inactive: [1] -0.19 | [2] 0.036 | [3] 0.059 | [4] -0.004 | [5] 0.007 | [6] 0.073 | [8] 0.046 | [10] -0.068

ACTL6A (UniProt O96019)
inactive: [1] 0.015 | [2] 0.011 | [3] -0.04 | [4] -0.017 | [5] -0.037 | [6] 0.003 | [7] -0.034 | [8] 0.018 | [9] -0.003 | [10] -0.01

ABHD5 (UniProt Q8WTS1)
inactive: [1] -0.153 | [2] -0.11 | [3] 0.019 | [4] 0.023 | [5] -0.01 | [7] 0.033 | [8] 0 | [9] -0.068

ADAD1 (UniProt Q96M93)
inactive: [3] -0.021

ACCS (UniProt Q96QU6)
inactive: [3] -0.142 | [4] -0.067 | [5] 0.032 | [7] -0.13 | [9] -0.039

ABCB11 (UniProt O95342)
inactive: [2] -0.08 | [3] -0.143 | [4] -0.001

ACYP2 (UniProt P14621)
inactive: [2] 0.126 | [3] 0.029 | [4] 0.14 | [5] 0.108 | [6] 0 | [7] -0.112 | [9] -0.114 | [10] -0.226

ABCD4 (UniProt O14678)
inactive: [2] 0.024 | [3] -0.002 | [4] -0.019 | [5] 0.057 | [6] -0.036 | [7] 0.057 | [9] -0.038 | [10] -0.043

ACTG1 (UniProt I3L4N8)
inactive: [1] 0.12 | [5] 0.039 | [7] -0.089 | [8] 0.173 | [9] -0.053

ABCA7 (UniProt Q8IZY2)
inactive: [2] 0.163 | [3] 0.036 | [5] -0.049 | [7] 0.24 | [9] -0.027

ACLY isoform 2 (UniProt P53396)
inactive: [2] 0.031 | [4] 0.018 | [5] -0.025 | [6] -0.041 | [7] -0.004 | [9] 0.022 | [10] -0.019

ACTR3B (UniProt Q9P1U1)
inactive: [4] -0.01 | [5] -0.004 | [6] 0.037 | [10] -0.01

ABCA4 (UniProt P78363)
inactive: [2] -0.249 | [4] 0.246 | [5] -0.152 | [7] 0.006 | [9] 0.006

ACADL (UniProt P28330)
inactive: [2] 0.027

ABCB1 (UniProt P08183)
inactive: [3] 0.026 | [4] 0.046 | [7] -0.128 | [9] -0.058

ABHD3 (UniProt Q8WU67)
inactive: [5] -0.191

ACOX1 isoform 3 (UniProt Q15067)
inactive: [4] -0.119 | [6] -0.09 | [10] 0.224

ABCF1 (UniProt Q5STZ8)
inactive: [3] 0.112 | [4] -0.231 | [6] -0.056 | [10] 0.071

ABHD17B (UniProt Q5VST6)
inactive: [1] -0.052 | [3] -0.067 | [4] -0.004 | [5] 0.13 | [6] -0.09 | [7] -0.133 | [8] 0.075 | [9] -0.058 | [10] 0.009

ADAM8 (UniProt P78325)
inactive: [5] 0.102

ACSF2 isoform 2 (UniProt Q96CM8)
inactive: [5] 0.05

ACBD7 (UniProt Q8N6N7)
inactive: [1] 0.139 | [7] 0.036 | [8] 0.024 | [9] -0.055

ACTRT1 (UniProt Q8TDG2)
inactive: [1] -0.045 | [5] -0.112 | [6] 0.025 | [8] -0.055 | [10] 0.017

ACTB (UniProt E7EVS6)
inactive: [5] -0.312

ACAD10 isoform 5 (UniProt Q6JQN1)
inactive: [1] 0.133 | [5] -0.018 | [6] -0.165 | [8] 0.216 | [10] -0.001

ABCA8 isoform 3 (UniProt O94911)
inactive: [4] 0.032 | [5] -0.038

ABL2 (UniProt P42684)
inactive: [2] 0.172 | [4] 0.189

ACVR1 (UniProt Q04771)
inactive: [2] -0.081 | [4] -0.042 | [5] 0 | [6] -0.095 | [7] 0.029 | [8] -0.106 | [9] 0.122 | [10] -0.156

ABHD11 (UniProt Q8NFV4)
inactive: [1] -0.022 | [4] 0.096 | [5] 0.05 | [6] -0.114 | [7] 0.02 | [8] -0.102 | [9] 0.004 | [10] -0.095

ABL1 isoform 2 (UniProt P00519)
inactive: [2] 0.046 | [4] 0.071 | [5] -0.167 | [6] -0.026 | [7] 0.144 | [8] -0.031 | [9] 0.144 | [10] -0.049

ABCD1 (UniProt P33897)
inactive: [2] 0.059 | [3] -0.042 | [5] -0.161

ACOX3 (UniProt O15254)
inactive: [2] -0.039 | [5] -0.034 | [6] -0.063 | [7] -0.313 | [9] -0.036 | [10] 0.046
active: [4] -0.465

AARSD1 (UniProt Q9BTE6)
inactive: [1] 0.008 | [5] 0.08 | [7] 0.014 | [8] 0.165 | [9] -0.042

ACTC1 (UniProt P68032)
inactive: [5] 0.27 | [7] 0.031 | [9] -0.253

ABCB5 (UniProt Q2M3G0)
inactive: [5] 0.078

ABRACL (UniProt Q9P1F3)
inactive: [2] -0.081

A2ML1 (UniProt A8K2U0)
inactive: [2] 0.347 | [4] 0.069 | [5] 0.028 | [6] 0.065 | [7] -0.212 | [9] -0.351 | [10] 0.075

ABHD4 (UniProt Q8TB40)
inactive: [5] -0.09

ABHD6 (UniProt Q9BV23)
inactive: [2] 0.171 | [4] 0.205 | [7] 0.058 | [9] -0.074

ABCB4 (UniProt P21439)
inactive: [4] 0.059 | [5] -0.115 | [6] 0.044 | [7] 0.052 | [9] -0.082 | [10] 0.102

ABCA2 isoform 3 (UniProt Q9BZC7)
inactive: [2] 0.006 | [7] 0.022 | [9] -0.293

ACAA2 (UniProt K7ER88)
inactive: [2] -0.037 | [6] -0.181 | [7] -0.201 | [9] 0.173 | [10] -0.105
